Source: the supplement of paper PMC10032668
The list shows a part of the results. The list holds hits alone, and they repeat only in part.

Protein sequences, listed by entry. Tags and fused reporters are not part of them.
NUDT21, O43809, UniProt O43809, whole entry: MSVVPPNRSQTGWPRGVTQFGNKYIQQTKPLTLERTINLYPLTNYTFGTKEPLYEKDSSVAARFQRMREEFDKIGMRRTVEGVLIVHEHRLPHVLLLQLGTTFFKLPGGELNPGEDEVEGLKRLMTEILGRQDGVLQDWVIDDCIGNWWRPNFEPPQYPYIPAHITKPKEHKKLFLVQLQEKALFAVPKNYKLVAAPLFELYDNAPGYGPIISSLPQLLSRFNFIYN
DNAJB1, P25685, UniProt P25685, whole entry: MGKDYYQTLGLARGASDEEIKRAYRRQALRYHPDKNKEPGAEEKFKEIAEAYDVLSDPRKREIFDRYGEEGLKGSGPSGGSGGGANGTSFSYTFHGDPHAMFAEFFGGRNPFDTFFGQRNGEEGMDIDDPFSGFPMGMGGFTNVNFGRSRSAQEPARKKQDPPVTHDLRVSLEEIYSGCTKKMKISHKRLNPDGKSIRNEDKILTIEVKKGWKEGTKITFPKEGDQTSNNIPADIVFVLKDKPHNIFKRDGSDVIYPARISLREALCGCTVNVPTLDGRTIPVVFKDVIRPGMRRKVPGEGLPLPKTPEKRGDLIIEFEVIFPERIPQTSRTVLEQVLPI
EP300, Q09472, UniProt Q09472, whole entry: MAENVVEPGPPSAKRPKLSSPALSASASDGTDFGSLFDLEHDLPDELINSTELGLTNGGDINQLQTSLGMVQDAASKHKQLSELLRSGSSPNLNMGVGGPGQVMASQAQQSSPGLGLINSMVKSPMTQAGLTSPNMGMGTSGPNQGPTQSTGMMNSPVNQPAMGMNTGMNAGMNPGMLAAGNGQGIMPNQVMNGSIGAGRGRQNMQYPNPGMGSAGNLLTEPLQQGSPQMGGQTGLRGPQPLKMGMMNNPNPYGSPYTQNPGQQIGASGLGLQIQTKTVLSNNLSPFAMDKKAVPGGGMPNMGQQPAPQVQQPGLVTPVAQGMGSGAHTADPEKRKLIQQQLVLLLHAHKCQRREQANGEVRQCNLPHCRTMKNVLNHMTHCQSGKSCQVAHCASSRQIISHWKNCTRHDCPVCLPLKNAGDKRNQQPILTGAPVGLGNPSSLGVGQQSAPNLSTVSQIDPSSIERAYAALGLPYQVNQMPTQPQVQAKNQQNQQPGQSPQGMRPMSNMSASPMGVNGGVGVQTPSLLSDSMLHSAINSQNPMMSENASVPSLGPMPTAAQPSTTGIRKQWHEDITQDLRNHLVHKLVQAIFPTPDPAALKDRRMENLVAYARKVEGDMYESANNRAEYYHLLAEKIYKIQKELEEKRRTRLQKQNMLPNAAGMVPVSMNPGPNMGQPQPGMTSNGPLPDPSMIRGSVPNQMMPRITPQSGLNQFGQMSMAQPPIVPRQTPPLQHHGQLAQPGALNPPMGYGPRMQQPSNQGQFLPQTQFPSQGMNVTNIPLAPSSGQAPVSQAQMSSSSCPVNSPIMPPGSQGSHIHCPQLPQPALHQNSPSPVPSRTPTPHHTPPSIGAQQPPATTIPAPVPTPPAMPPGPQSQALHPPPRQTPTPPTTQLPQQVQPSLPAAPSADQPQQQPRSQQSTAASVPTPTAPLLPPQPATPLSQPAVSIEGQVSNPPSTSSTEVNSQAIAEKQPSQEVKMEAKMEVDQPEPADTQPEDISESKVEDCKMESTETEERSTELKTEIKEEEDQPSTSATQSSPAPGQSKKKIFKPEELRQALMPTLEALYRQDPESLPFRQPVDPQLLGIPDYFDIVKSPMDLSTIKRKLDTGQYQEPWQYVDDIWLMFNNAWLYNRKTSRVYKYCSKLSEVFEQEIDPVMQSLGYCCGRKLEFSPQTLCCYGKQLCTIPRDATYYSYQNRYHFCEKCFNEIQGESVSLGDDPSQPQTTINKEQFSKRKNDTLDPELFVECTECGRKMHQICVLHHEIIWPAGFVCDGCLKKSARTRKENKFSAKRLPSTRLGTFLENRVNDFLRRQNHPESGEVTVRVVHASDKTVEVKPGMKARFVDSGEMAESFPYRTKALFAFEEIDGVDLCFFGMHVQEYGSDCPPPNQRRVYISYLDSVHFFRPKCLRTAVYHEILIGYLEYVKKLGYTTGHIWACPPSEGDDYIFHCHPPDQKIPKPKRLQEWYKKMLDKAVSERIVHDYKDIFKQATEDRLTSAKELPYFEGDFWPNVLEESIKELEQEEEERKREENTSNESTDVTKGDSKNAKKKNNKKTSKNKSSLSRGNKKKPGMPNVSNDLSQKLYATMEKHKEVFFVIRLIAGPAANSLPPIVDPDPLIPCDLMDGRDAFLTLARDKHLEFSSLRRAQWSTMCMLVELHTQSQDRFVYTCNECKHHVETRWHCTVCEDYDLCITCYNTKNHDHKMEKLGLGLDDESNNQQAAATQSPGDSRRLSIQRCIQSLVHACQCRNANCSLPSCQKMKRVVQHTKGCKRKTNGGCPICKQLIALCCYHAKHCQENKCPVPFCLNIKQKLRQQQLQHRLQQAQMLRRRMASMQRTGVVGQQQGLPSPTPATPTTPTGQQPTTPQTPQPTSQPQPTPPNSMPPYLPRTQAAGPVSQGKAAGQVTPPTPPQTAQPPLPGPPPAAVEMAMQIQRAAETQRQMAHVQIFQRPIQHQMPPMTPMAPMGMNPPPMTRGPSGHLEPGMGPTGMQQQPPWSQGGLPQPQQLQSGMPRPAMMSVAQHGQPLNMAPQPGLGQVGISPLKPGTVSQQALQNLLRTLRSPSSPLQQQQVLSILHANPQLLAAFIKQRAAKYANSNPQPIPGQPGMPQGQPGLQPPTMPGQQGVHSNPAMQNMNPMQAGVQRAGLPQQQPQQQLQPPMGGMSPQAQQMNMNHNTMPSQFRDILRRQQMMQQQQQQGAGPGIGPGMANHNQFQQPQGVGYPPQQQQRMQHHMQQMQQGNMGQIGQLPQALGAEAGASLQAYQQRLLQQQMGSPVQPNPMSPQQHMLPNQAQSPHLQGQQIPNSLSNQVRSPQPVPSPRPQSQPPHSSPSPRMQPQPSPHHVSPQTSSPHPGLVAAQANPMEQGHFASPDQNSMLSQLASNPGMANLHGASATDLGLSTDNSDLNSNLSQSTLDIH
MPG, P29372, UniProt P29372, whole entry: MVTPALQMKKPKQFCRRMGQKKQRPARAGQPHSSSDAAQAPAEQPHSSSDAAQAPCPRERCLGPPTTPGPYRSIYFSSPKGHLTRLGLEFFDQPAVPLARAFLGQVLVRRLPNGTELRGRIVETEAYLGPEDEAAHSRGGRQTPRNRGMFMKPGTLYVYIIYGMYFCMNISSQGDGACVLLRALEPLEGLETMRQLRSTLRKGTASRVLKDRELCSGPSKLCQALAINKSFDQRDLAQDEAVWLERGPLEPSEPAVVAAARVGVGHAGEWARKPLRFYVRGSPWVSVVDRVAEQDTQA
PFDN6, O15212, UniProt O15212, whole entry: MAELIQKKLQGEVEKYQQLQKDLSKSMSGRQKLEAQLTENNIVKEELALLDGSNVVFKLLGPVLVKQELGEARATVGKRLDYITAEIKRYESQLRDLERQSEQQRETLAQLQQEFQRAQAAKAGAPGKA

Tests used:
Assay in all cases: PRISMA enrichment of interactor (LFQ) in peptide spot vs all other peptide spots (log2 fold change); higher = stronger / more specific binding of the interactor to the peptide
AAR2, Q9Y312 = molecular target: AAR2, Q9Y312
Procedure: (§1)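 PRISMA: 15-aa overlapping tiles (offset 8 aa) of 60 microproteins, plus SOS1/GLUT1 control peptides, were spot-synthesized on cellulose membranes in triplicate. Membranes were incubated with benzonase-treated HEK293T lysate, and bound proteins were identified by LC-MS/MS with LFQ. Enrichment is the log2 fold change of each protein in one spot versus all other spots. Only interactors passing the significance cutoff are listed.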

AIMP1, Q12904 = molecular target: AIMP1, Q12904
Procedure: as §1

ALDH6A1, Q02252 = molecular target: ALDH6A1, Q02252
Procedure: as §1

DDX31, Q9H8H2 = molecular target: DDX31, Q9H8H2
Procedure: as §1

GPC4, O75487 = molecular target: GPC4, O75487
Procedure: as §1

GTF3C3, Q9Y5Q9 = molecular target: GTF3C3, Q9Y5Q9
Procedure: as §1

IDH3A, P50213 = molecular target: IDH3A, P50213
Procedure: as §1

LSG1, Q9H089 = molecular target: LSG1, Q9H089
Procedure: as §1

MRPL3, P09001 = molecular target: MRPL3, P09001
Procedure: as §1

MRPS14, O60783 = molecular target: MRPS14, O60783
Procedure: as §1

MRPS22, P82650 = molecular target: MRPS22, P82650
Procedure: as §1

MT-ATP6, P00846 = molecular target: MT-ATP6, P00846
Procedure: as §1

MT-ATP8, P03928 = molecular target: MT-ATP8, P03928
Procedure: as §1

NUDT21, O43809 = molecular target: NUDT21, O43809
Procedure: as §1

PELP1, Q8IZL8 = molecular target: PELP1, Q8IZL8
Procedure: as §1

SCD, O00767 = molecular target: SCD, O00767
Procedure: as §1

TMEM109, Q9BVC6 = molecular target: TMEM109, Q9BVC6
Procedure: as §1

TPD52L2, O43399 = molecular target: TPD52L2, O43399
Procedure: as §1

ACTR2, P61160 = molecular target: ACTR2, P61160
Procedure: as §1

APRT, P07741 = molecular target: APRT, P07741
Procedure: as §1

DCXR, Q7Z4W1 = molecular target: DCXR, Q7Z4W1
Procedure: as §1

DECR1, Q16698 = molecular target: DECR1, Q16698
Procedure: as §1

DNAJB1, P25685 = molecular target: DNAJB1, P25685
Procedure: as §1

EP300, Q09472 = molecular target: EP300, Q09472
Procedure: as §1

LARP7, Q4G0J3 = molecular target: LARP7, Q4G0J3
Procedure: as §1

LPCAT3, Q6P1A2 = molecular target: LPCAT3, Q6P1A2
Procedure: as §1

MPG, P29372 = molecular target: MPG, P29372
Procedure: as §1

MRPS9, P82933 = molecular target: MRPS9, P82933
Procedure: as §1

[1] = substrate: NSF, P46459
Procedure: as §1

NUP214, P35658 = molecular target: NUP214, P35658
Procedure: as §1

PFDN6, O15212 = molecular target: PFDN6, O15212
Procedure: as §1

POLR2H, P52434 = molecular target: POLR2H, P52434
Procedure: as §1

PRPF3, O43395 = molecular target: PRPF3, O43395
Procedure: as §1

SFXN2, Q96NB2 = molecular target: SFXN2, Q96NB2
Procedure: as §1

SHROOM3, Q8TF72 = molecular target: SHROOM3, Q8TF72
Procedure: as §1

SPART, Q8N0X7 = molecular target: SPART, Q8N0X7
Procedure: as §1

STK24, Q9Y6E0 = molecular target: STK24, Q9Y6E0
Procedure: as §1

TWNK, Q96RR1 = molecular target: TWNK, Q96RR1
Procedure: as §1

UBAC2, Q8NBM4 = molecular target: UBAC2, Q8NBM4
Procedure: as §1

UBE2M, P61081 = molecular target: UBE2M, P61081
Procedure: as §1

UFD1, Q92890 = molecular target: UFD1, Q92890
Procedure: as §1

ZNF483, Q8TF39 = molecular target: ZNF483, Q8TF39
Procedure: as §1

PGGGPLLASFATPLL [RP11-140K17.3_2]
PRISMA enrichment of interactor (log2) (AAR2, Q9Y312): 5.67 | PRISMA enrichment of interactor (log2) (AIMP1, Q12904): 4.67 | PRISMA enrichment of interactor (log2) (ALDH6A1, Q02252): 6.3 | PRISMA enrichment of interactor (log2) (DDX31, Q9H8H2): 4.39 | PRISMA enrichment of interactor (log2) (GPC4, O75487): 4.21 | PRISMA enrichment of interactor (log2) (GTF3C3, Q9Y5Q9): 6.55 | PRISMA enrichment of interactor (log2) (IDH3A, P50213): 4.58 | PRISMA enrichment of interactor (log2) (LSG1, Q9H089): 7.67 | PRISMA enrichment of interactor (log2) (MRPL3, P09001): 5.38 | PRISMA enrichment of interactor (log2) (MRPS14, O60783): 4.29 | PRISMA enrichment of interactor (log2) (MRPS22, P82650): 4.83 | PRISMA enrichment of interactor (log2) (MT-ATP6, P00846): 5.93 | PRISMA enrichment of interactor (log2) (MT-ATP8, P03928): 4.95 | PRISMA enrichment of interactor (log2) (NUDT21, O43809): 6.71 | PRISMA enrichment of interactor (log2) (PELP1, Q8IZL8): 6.26 | PRISMA enrichment of interactor (log2) (SCD, O00767): 4.43 | PRISMA enrichment of interactor (log2) (TMEM109, Q9BVC6): 4.9 | PRISMA enrichment of interactor (log2) (TPD52L2, O43399): 5.16

SLKVCGSSPILLSLP [RP11-12K22.1]
PRISMA enrichment of interactor (log2) (AAR2, Q9Y312): 5.68 | PRISMA enrichment of interactor (log2) (ACTR2, P61160): 4.92 | PRISMA enrichment of interactor (log2) (APRT, P07741): 6.17 | PRISMA enrichment of interactor (log2) (DCXR, Q7Z4W1): 5.22 | PRISMA enrichment of interactor (log2) (DECR1, Q16698): 5.38 | PRISMA enrichment of interactor (log2) (DNAJB1, P25685): 4.94 | PRISMA enrichment of interactor (log2) (EP300, Q09472): 3.9 | PRISMA enrichment of interactor (log2) (LARP7, Q4G0J3): 5.27 | PRISMA enrichment of interactor (log2) (LPCAT3, Q6P1A2): 6.46 | PRISMA enrichment of interactor (log2) (MPG, P29372): 5.07 | PRISMA enrichment of interactor (log2) (MRPS9, P82933): 4.54 | PRISMA enrichment of interactor (log2) [1]: 4.58 | PRISMA enrichment of interactor (log2) (NUP214, P35658): 4.9 | PRISMA enrichment of interactor (log2) (PFDN6, O15212): 4.23 | PRISMA enrichment of interactor (log2) (POLR2H, P52434): 4.7 | PRISMA enrichment of interactor (log2) (PRPF3, O43395): 4.64 | PRISMA enrichment of interactor (log2) (SFXN2, Q96NB2): 4.36 | PRISMA enrichment of interactor (log2) (SHROOM3, Q8TF72): 9.92 | PRISMA enrichment of interactor (log2) (SPART, Q8N0X7): 4.53 | PRISMA enrichment of interactor (log2) (STK24, Q9Y6E0): 4.64 | PRISMA enrichment of interactor (log2) (TWNK, Q96RR1): 4.27 | PRISMA enrichment of interactor (log2) (UBAC2, Q8NBM4): 5.22 | PRISMA enrichment of interactor (log2) (UBE2M, P61081): 4.52 | PRISMA enrichment of interactor (log2) (UFD1, Q92890): 6.35 | PRISMA enrichment of interactor (log2) (ZNF483, Q8TF39): 4.78
